Laboratory results published in patent publication US20110039331A1 (OSAKA UNIVERSITY, published 2011).
No constants are given. Whether binding was seen depends on the method and setting. Some binding calls cover weakened binding; strength is not graded here.

The chains behind the UniProt entries cited, without tags or fusion partners. Where a name states a change or a piece, a line headed by the entry shows the natural chain unless it says otherwise.
UniProt P01241: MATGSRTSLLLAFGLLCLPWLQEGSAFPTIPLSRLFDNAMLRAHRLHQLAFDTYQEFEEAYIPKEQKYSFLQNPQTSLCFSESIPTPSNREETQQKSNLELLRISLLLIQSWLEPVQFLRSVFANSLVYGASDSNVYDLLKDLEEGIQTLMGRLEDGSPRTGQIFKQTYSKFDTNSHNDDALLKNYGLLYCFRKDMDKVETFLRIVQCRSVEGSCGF
UniProt P02679: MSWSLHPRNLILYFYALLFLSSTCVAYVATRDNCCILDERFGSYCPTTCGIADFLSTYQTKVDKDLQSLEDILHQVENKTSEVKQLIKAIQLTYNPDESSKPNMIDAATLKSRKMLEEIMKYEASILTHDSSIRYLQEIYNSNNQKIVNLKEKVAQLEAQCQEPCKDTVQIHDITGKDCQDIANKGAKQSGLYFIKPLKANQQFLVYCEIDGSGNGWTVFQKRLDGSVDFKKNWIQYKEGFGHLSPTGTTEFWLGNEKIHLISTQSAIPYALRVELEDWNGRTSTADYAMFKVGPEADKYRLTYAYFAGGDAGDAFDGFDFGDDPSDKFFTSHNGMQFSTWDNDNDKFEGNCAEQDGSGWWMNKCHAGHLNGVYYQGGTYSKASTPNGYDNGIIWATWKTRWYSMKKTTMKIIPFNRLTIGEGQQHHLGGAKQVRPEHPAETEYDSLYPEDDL

Key:
[1] = molecular target: T1, hGH-BAS-γC-P4×3, human growth factor/human fibrinogen γ chain C domain fusion protein with 3 repeats of the P4 sequence (human) (UniProt P01241+P02679); assay: SPR (Biacore X-100), P20.1 antibody-immobilized sensor chip, fusion protein as analyte at 20 µL/min [b]
[2] = molecular target: T2, hGH-BAS-γC-P4×5, human growth factor/human fibrinogen γ chain C domain fusion protein with 5 repeats of the P4 sequence (human) (UniProt P01241+P02679); assay: SPR (Biacore X-100), P20.1 antibody-immobilized sensor chip, fusion protein as analyte at 20 µL/min [c]
[3] = molecular target: T1, hGH-BAS-γC-P4×3, human growth factor/human fibrinogen γ chain C domain fusion protein with 3 repeats of the P4 sequence (human); assay: sandwich ELISA, capture by immobilized anti-hGH antibody HGH-B, detection by biotinylated P20.1 antibody (5 µg/mL) and peroxidase-labeled streptavidin, absorbance at 405 nm, dilutions of cell supernatant
[4] = molecular target: T2, hGH-BAS-γC-P4×5, human growth factor/human fibrinogen γ chain C domain fusion protein with 5 repeats of the P4 sequence (human); assay: as above
[5] = molecular target: T1, hGH-BAS-γC-P4×3, human growth factor/human fibrinogen γ chain C domain fusion protein with 3 repeats of the P4 sequence (human); assay: sandwich ELISA (legend of FIG. 21)
[6] = molecular target: T2, hGH-BAS-γC-P4×5, human growth factor/human fibrinogen γ chain C domain fusion protein with 5 repeats of the P4 sequence (human); assay: sandwich ELISA (legend of FIG. 21)
[7] = molecular target: T1, hGH-BAS-γC-P4×3, human growth factor/human fibrinogen γ chain C domain fusion protein with 3 repeats of the P4 sequence (human); assay: sandwich ELISA, capture by P20.1 antibody coated at 10 µg/mL, detection by rabbit anti-BAS serum
[8] = molecular target: T2, hGH-BAS-γC-P4×5, human growth factor/human fibrinogen γ chain C domain fusion protein with 5 repeats of the P4 sequence (human); assay: as above
[9] = molecular target: T1, hGH-BAS-γC-P4×3, human growth factor/human fibrinogen γ chain C domain fusion protein with 3 repeats of the P4 sequence (human); assay: pull-down from culture supernatant with P20.1 antibody-Sepharose, elution with eluents (1) to (8) of paragraph 190, SDS gel electrophoresis [b]
[10] = molecular target: T1, hGH-BAS-γC-P4×3, human growth factor/human fibrinogen γ chain C domain fusion protein with 3 repeats of the P4 sequence (human); assay: sandwich ELISA, capture by anti-hGH antibody HGH-B, detection by biotinylated P20.1 antibody at 5 µg/mL
[11] = molecular target: T2, hGH-BAS-γC-P4×5, human growth factor/human fibrinogen γ chain C domain fusion protein with 5 repeats of the P4 sequence (human); assay: as above
[12] = molecular target: T2, hGH-BAS-γC-P4×5, human growth factor/human fibrinogen γ chain C domain fusion protein with 5 repeats of the P4 sequence (human); assay: SPR (Biacore X-100), P20.1 antibody-immobilized chip, fusion protein flowed over
[13] = molecular target: T1, hGH-BAS-γC-P4×3, human growth factor/human fibrinogen γ chain C domain fusion protein with 3 repeats of the P4 sequence (human); assay: pull-down from culture supernatant with P20.1 antibody-Sepharose, elution with eluents (1) to (8) of paragraph 187, SDS gel electrophoresis [a]
[14] = molecular target: T1, hGH-BAS-γC-P4×3, human growth factor/human fibrinogen γ chain C domain fusion protein with 3 repeats of the P4 sequence (human); assay: sandwich ELISA, capture by P20.1 antibody immobilized at 10 µg/mL, detection by rabbit antiserum against the BAS sequence and peroxidase-labeled anti-rabbit IgG, dilutions of cell supernatant
[15] = molecular target: T2, hGH-BAS-γC-P4×5, human growth factor/human fibrinogen γ chain C domain fusion protein with 5 repeats of the P4 sequence (human); assay: as above
[16] = molecular target: T1, hGH-BAS-γC-P4×3, human growth factor/human fibrinogen γ chain C domain fusion protein with 3 repeats of the P4 sequence (human); assay: sandwich ELISA (legend of FIG. 22)
[17] = molecular target: T2, hGH-BAS-γC-P4×5, human growth factor/human fibrinogen γ chain C domain fusion protein with 5 repeats of the P4 sequence (human); assay: sandwich ELISA (legend of FIG. 22)

binding [1]: binds
binding [2]: binds
binding [3]: binds
binding [4]: binds
binding [5]: binds
binding [6]: binds
binding [7]: binds
binding [8]: binds
binding [9]: binds
binding [10]: binds
binding [11]: binds
binding [12]: binds
binding [13]: binds
binding [14]: binds
binding [15]: binds
binding [16]: binds
binding [17]: binds
B1: P20.1 antibody (monoclonal antibody produced by mouse-mouse hybridoma P20.1, FERM BP-11061) (antibody, mouse IgG1, V domains shown)
VH: QIQLVQSGPEVQKPGETVRISCKASGYTFTTAGMQWVQKMPGKSLKWIGWINTRSGVPKYAEDFKGRFAFSLETSASIAYLHINNLKNEDTATYFCAREGPGFVYWGQGTLVTVSA
VL: QTVVTQESALTTSPGETVTLTCRSSTGVVTTSNYANWVQEKPDHLFTGLIVGTNNRVPGVPPRFSGSLIGDKAALTITGAQTEDEAIYFCALWYSNHWVFGGGTKLTVL
notes: Biotinylated in the sandwich ELISA of 7-2-1 and coupled to CNBr-Sepharose in the pull-down and purification experiments; also called P20.1 Ab; monoclonal P20.1 antibody
